Source: patent publication US6576442 (SUGEN, dated 2003)
Results are given in words; binding and its absence hold for the method and conditions named. For some assays here: In cells and extracts the contact can be indirect. Some binding calls cover weakened binding; strength is not graded here. Sequences can lack the tags named with a protein.

By UniProt entry, the sequences of proteins in these tests, tags left out.
UniProt Q14289: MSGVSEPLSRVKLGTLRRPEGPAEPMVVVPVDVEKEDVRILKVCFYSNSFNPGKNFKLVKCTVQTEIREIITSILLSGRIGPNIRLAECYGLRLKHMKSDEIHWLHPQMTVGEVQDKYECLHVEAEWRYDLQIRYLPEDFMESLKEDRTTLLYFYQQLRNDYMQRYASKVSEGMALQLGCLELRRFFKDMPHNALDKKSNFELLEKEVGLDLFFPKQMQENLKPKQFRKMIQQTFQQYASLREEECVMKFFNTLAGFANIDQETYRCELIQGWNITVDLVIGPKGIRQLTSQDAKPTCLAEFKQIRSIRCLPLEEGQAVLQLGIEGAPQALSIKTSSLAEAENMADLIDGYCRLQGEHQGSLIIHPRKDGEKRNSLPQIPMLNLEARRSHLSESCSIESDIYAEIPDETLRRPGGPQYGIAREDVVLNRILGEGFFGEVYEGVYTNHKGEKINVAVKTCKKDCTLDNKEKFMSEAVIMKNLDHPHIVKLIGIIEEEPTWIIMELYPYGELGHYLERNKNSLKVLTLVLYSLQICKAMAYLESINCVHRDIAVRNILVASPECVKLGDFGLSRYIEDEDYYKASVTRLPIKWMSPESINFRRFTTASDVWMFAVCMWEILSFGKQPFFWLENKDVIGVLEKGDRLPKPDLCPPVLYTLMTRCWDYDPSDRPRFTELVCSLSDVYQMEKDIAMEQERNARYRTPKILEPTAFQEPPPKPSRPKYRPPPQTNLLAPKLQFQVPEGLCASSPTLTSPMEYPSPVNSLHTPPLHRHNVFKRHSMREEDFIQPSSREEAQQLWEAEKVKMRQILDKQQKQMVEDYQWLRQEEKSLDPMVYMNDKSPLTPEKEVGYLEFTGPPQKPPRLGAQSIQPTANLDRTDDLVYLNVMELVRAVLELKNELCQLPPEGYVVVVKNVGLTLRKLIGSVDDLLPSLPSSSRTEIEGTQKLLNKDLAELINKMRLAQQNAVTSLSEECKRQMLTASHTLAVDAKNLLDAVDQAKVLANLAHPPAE

Tests used:
[1] = target: T1, GST-fusion protein containing the same portion of hrdgB1 (amino acids 627-936) (human) (UniProt Q9BZ71); experiment: in vitro binding to immobilized GST-fusion protein
T1 sequence: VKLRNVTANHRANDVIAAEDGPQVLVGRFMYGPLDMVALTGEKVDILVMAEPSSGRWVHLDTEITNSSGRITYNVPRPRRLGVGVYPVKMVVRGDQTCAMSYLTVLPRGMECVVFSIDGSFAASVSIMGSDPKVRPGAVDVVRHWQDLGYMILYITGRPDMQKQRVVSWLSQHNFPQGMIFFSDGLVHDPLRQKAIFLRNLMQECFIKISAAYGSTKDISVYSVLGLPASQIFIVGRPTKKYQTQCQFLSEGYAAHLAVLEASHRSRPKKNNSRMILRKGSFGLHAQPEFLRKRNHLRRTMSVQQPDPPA

[2] = target: PYK2 (tyrosine protein kinase) (UniProt Q14289); experiment: pull-down of PYK2 out of a cell lysate with GST-fused rdgB protein
[3] = target: PYK2 (tyrosine protein kinase) (UniProt Q14289); experiment: coexpression in COS cells, anti-HA immunoprecipitation, immunoblot with anti-PYK2
[4] = target: PYK2 (tyrosine protein kinase) (UniProt Q14289); experiment: coexpression in COS cells, interaction analyzed

## PYK2 (tyrosine protein kinase) (from UniProt Q14289 1-1009) (enzyme)
[1]
  binding: binds

B1: GST-fusion protein containing the same portion of hrdgB1 (amino acids 627-936) (protein, not shown: a dimerising Fc or GST)
chain: T1 sequence
[2]
  binding: binds

B2: hrdgB3-HA (full length hrdgB3 with C-terminal HA-epitope tag) (protein)
chain: MIIKEYRIPLPMTVEEYRIAQLYMIQKKSRNETYGEGSGVEILENRPYTDGPGGSGQYTHKVYHVGMHIPSWFRSILPKAALRVVEESWNAYPYTRTRFTCPFVEKFSIDIETFYKTDAGENPDVFNLSPVEKNQLTIDFIDIVKDPVPHNEYKTEEDPKLFQSTKTQRGPLSENWIEEYKKQVFPIMCAYKLCKVEFRYWGMQSKIERFIHDTGLRRVMVRAHRQAWCWQDEWYGLSMENIRELEKEAQLMLSRKMAQFNEDGEEATELVKHEAVSDQTSGEPPEPSSSNGEPLVGRGLKKQWSTSSKSSRSSKRGASPSRHSISEWRMQSIARDSDESSDDEFFDAHEDLSDTEEMFPKDITKWSSNDLMDKIESPEPEDTQDGLYRQGAPEFRVASSVEQLNIIEDEVSQPLAAPPSKIHVLLLVLHGGTILDTGAGDPSSKKGDANTIANVFDTVMRVHYPSALGRLAIRLVPCPPVCSDAFALVSNLSPYSHDEGCLSSSQDHIPLAALPLLATSSPQYQEAVATVIQRANLAYGDFIKSQEGMTFNGQVCLIGDCVGGILAFDALCYSNQPVSESQSSSRRGSVVSMQDNDLLSPGILMNAAHCCGGGGGGGGGGGSSGGGGSSGGSSLESSRHLSRSNVDIPRSNGTEDPKRQLPRKRSDSSTYELDTIQQHQAFLSSLHASVLRTEPCSRHSSSSTMLDGTGALGRFDFEITDLFLFGCPLGLVLALRKTVIPALDVFQLRPACQQVYNLFHPADPSASRLEPLLERRFHALPPFSVPRYQRYPLGDGCSTLLADVLQTHNAAFQEHGAPSSPGTAPASRGFRRASEISIASQVSGMAESYTASSIAQKAPDALSHTPSVRRLSLLALPAPSPTTPGPHPPARKASPGLERAPGLPELDIGEVAAKWWGQKRIDYALYCPDALTAFPTVALPHLFHASYWESTDVVSFLLRQVMRHDNSSILELDGKEVSVFTPSKPREKWQRKRTHVKLRNVTANHRINDALANEDGPQVLTGRFMYGPLDMVTLTGEKVDVHIMTQPPSGEWLYLDTLVTNNSGRVSYTIPESHRLGVGVYPIKMVVRGDHTFADSYITVLPKGTEFVVFSIDGSFAASVSIMGSDPKVRAGAVDVVRHWQDLGYLIIYVTGRPDMQKQRVVAWLAQHNFPHGVVSFCDGLVHDPLRHKANFLKLLISELHLRVHAAYGSTKDVAVYSAISLSPMQIYIVGRPTKKLQQQCQFITDGYAAHLAQLKYSHRARPARNTATRMALRKGSFGLPGQGDFLRSRNHLLRTISAQPSGPSHRHERTQSQADGEQRGQRSMSVAAGCWGRAMTGRLEPGAAAGPKYPYDVPDYAS
[3]
  binding: binds

B3: myc-tagged version of the hrdgB2 'PYK2-binding domain' (residues 911-1243) (protein)
chain: MEQKLISEEDLVKIRNVTSNHRASDTVVCEGPPQVLSGRFMYGPLDVVTLTGEKVDVYIMTQPLSGKWIHFGTEVTNSSGRLTFPVPPERALGIGVYPVRMVVRGDHTYAECCLTVVARGTEAVVFSIDGSFTASVSIMGSDPKVRAGAVDVVRHWQDSGYLIVYVTGRPDMQKHRVVAWLSQHNFPHGVVSFCDGLTHDPLRQKAMFLQSLVQEVELNIVAGYGSPKDVAVYAALGLSPSQTYIVGRAVRKLQAQCQFLSDGYVAHLGQLEAGSHSHASSGPPRAALGKSSYGVAAPVDFLRKQSQLLRSRGPSQAEREGPGTPPTTLARGKARSISLKLDSE
[4]
  binding: binds

B4: hrdgB2-HA (full length hrdgB2 with C-terminal HA-epitope tag) (protein)
chain: MLIKEYHILLPMSLDEYQVAQLYMIQKKSREESSGEGSGVEILANRPYTDGPGGSGQYTHKVYHVGSHIPGWFRALLPKAALQVEEESWNAYPYTRTRYTCPFVEKFSIEIETYYLPDGGQQPNVFNLSGAERRQRILDTIDIVRDAVAPGEYKAEEDPRLYHSVKTGRGPLSDDWARTAAQTGPLMCAYKLCKVEFRYWGMQAKIEQFIHDVGLRRVMLRAHRQAWCWQDEWTELSMADIRALEEETARMLAQRMAKCNTGSEGSEAQPPGKPSTEARSAASNTGTPDGPEAPPGPDASPDASFGKQWSSSSRSSYSSQHGGAVSPQSLSEWRMQNIARDSENSSEEEFFDAHEGFSDSEEVFPKEMTKWNSNDFIDAFASPVEAEGTPEPGAEAAKGIEDGAQAPRDSEGLDGAGELGAEACAVHALFLILHSGNILDSGPGDANSKQADVQTLSSAFEAVTRIHFPEALGHVALRLVPCPPICAAAYALVSNLSPYSHDGDSLSRSQDHIPLAALPLLATSSSRYQGAVATVIARTNQAYSAFLRSPEGAGFCGQVALIGDGVGGILGFDALCHSANAGTGSRGSSRRGSMNNELLSPEFGPVRDPLADGVEGLGRGSPEPSALPPQRIPSDMASPEPEGSQNSLQAAPATTSSWEPRRASTAFCPPAASSEAPDGPSSTARLDFKVSGFFLFGSPLGLVLALRKTVMPALEAAQMRPACEQIYNLFHAADPCASRLEPLLAPKFQAIAPLTVPRYQKFPLGDGSSLLLADTLQTHSSLFLEELEMLVPSTPTSTSGAFWKGSELATDPPAQPAAPSTTSEVVKILERWWGTKRIDYSLYCPEALTAFPTVTLPHLFHASYWESADVVAFILRQVIEKERPQLAECEEPSIYSPAFPREKWQRKRTQVKIRNVTSNHRASDTVVCEGPPQVLSGRFMYGPLDVVTLTGEKVDVYIMTQPLSGKWIHFGTEVTNSSGRLTFPVPPERALGIGVYPVRMVVRGDHTYAECCLTVVARGTEAVVFSIDGSFTASVSIMGSDPKVRAGAVDVVRHWQDSGYLIVYVTGRPDMQKHRVVAWLSQHNFPHGVVSFCDGLTHDPLRQKAMFLQSLVQEVELNIVAGYGSPKDVAVYAALGLSPSQTYIVGRAVRKLQAQCQFLSDGYVAHLGQLEAGSHSHASSGPPRAALGKSSYGVAAPVDFLRKQSQLLRSRGPSQAEREGPGTPPTTLARGKARSISLKLDSEEYPYDVPDYAS
[3]
  binding: binds
